Values of other authors, collected in US20140304844A1, “XENOGRAFT MODEL OF HUMAN BONE METASTATIC PROSTATE CANCER” (The Regents of the University of California, priority 2011, published 2014).
At least one structure is not confirmed: it was looked up by name or label, or the drawing left a doubt.

Columns and labels:
[1] = tested on: chemotherapy-naive metastatic castration-resistant prostate cancer
[2] = tested on: bone metastatic prostate cancer; settings: some patients treated

Row | Structure (SMILES) | patients displaying bone scan flare discordant with PSA serologic response ([1]; Phase II study, fraction of patients with chemotherapy-naive metastatic castration-resistant prostate cancer) | bone scans in patients with significantly lowered PSA levels after treatment ([1]; many patients, after treatment with abiraterone) | PSA levels [2] | positive bone scans [2]
1 | C[C@]12CC[C@H](O)CC1=CC[C@@H]1[C@@H]2CC[C@]2(C)C(c3cccnc3)=CC[C@@H]12 [abiraterone] | approximately one third | still showed positive bone scans | – | –
2 | COc1cc2nccc(Oc3ccc(NC(=O)C4(C(=O)Nc5ccc(F)cc5)CC4)cc3)c2cc1OC [cabozantinib] | – | – | no decrease | dramatic reductions
